Results on 23 targets are retold here after the supplement of paper PMC10849652.

The chains behind the UniProt entries cited, without tags or fusion partners. Where a name states a change or a piece, a line headed by the entry shows the natural chain unless it says otherwise.
UniProt Q9Y5U2: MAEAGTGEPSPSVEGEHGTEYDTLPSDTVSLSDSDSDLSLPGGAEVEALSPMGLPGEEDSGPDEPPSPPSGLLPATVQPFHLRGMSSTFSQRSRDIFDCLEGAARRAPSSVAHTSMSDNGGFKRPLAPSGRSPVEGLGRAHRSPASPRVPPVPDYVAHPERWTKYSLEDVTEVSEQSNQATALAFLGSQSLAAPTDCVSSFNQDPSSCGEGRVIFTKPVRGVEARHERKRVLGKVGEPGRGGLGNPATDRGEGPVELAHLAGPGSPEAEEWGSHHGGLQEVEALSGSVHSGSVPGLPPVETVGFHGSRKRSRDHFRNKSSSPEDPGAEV
UniProt Q96DX7: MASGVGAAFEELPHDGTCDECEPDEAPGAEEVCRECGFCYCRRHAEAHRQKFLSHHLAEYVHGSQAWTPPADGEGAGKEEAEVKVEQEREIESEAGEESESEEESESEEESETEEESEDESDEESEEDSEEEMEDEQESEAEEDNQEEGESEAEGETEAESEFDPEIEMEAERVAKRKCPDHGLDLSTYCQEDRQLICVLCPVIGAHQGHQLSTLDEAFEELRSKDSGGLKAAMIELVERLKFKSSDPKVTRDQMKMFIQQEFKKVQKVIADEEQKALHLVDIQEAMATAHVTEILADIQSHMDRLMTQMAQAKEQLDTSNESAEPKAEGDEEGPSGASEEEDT
UniProt Q53H54: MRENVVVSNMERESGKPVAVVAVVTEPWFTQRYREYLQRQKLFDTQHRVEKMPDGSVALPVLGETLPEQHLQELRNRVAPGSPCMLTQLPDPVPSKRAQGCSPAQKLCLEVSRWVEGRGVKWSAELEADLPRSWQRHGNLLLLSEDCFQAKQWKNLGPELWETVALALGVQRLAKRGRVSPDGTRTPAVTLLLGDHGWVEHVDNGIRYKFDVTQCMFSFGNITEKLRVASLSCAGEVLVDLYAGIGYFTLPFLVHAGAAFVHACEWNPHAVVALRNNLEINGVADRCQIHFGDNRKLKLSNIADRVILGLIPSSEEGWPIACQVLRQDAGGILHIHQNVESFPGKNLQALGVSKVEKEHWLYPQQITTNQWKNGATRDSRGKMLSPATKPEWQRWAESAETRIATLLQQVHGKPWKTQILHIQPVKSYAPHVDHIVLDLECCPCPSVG
UniProt Q8N5M4: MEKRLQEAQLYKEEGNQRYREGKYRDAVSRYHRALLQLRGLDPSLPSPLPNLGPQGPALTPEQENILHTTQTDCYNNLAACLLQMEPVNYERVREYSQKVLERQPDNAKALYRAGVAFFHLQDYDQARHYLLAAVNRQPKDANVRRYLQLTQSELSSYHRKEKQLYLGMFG
UniProt Q86SZ2: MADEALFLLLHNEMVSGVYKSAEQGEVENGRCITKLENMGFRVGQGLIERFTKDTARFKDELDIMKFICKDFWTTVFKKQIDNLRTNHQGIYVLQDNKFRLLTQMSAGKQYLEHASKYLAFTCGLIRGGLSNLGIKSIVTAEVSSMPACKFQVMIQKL
UniProt O00635: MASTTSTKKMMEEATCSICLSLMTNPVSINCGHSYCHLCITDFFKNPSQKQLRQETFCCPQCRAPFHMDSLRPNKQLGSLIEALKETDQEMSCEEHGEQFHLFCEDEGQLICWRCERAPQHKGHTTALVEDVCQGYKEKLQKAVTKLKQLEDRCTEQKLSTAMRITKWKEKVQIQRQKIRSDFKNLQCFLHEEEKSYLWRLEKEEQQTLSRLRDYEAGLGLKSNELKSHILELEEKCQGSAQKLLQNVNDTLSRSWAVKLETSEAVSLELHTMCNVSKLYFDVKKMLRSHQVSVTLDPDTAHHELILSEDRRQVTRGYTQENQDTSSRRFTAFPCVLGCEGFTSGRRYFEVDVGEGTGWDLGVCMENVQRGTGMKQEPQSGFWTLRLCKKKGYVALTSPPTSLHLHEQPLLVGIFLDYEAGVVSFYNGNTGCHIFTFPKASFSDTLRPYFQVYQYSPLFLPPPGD
UniProt Q8TBZ6: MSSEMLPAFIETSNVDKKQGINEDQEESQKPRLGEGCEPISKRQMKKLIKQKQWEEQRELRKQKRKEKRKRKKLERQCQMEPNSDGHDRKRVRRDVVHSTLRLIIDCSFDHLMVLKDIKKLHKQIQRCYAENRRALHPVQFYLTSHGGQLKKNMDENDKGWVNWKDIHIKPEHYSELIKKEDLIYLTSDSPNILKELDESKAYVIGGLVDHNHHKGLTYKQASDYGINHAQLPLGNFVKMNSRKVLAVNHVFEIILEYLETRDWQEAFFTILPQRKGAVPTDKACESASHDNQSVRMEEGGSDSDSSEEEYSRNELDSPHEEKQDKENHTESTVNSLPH
UniProt Q15631: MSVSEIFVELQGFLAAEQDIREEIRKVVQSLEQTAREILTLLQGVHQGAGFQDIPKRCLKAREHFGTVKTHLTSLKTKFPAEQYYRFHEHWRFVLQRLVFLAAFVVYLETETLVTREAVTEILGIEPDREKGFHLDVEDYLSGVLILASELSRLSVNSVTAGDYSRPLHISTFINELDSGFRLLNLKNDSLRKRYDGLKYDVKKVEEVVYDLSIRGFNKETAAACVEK
UniProt O75865, whole entry, looked up: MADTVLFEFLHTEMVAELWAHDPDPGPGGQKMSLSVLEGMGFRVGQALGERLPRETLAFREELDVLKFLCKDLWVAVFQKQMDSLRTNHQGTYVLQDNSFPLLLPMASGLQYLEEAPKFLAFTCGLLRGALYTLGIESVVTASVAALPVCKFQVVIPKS
UniProt Q15714: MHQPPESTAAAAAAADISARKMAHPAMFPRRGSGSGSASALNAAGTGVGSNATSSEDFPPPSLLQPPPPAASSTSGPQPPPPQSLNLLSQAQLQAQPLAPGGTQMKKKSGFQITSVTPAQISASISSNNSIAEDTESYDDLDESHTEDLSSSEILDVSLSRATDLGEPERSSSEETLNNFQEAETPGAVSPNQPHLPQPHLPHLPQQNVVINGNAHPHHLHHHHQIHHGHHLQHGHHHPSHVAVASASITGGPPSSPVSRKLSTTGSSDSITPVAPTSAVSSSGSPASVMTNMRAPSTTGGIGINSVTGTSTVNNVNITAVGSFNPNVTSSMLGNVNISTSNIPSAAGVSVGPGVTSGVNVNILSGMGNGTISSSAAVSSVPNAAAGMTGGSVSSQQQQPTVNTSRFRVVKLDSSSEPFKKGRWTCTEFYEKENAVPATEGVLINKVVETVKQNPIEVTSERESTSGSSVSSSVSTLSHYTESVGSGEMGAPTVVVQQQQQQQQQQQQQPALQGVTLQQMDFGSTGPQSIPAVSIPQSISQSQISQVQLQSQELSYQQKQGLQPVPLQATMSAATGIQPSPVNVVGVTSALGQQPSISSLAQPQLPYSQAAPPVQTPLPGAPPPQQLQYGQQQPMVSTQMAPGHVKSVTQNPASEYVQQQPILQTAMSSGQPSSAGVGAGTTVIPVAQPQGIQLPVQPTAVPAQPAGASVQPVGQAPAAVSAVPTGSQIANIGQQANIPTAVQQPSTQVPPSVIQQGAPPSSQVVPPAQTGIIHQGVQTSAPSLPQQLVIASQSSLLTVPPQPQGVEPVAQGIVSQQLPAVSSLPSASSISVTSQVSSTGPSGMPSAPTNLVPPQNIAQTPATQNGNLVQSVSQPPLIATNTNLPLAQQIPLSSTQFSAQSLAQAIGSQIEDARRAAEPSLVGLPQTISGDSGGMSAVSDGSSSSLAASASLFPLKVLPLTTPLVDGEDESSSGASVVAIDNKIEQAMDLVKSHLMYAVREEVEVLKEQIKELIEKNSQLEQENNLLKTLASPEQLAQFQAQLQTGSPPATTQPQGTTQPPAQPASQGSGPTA
UniProt P43897: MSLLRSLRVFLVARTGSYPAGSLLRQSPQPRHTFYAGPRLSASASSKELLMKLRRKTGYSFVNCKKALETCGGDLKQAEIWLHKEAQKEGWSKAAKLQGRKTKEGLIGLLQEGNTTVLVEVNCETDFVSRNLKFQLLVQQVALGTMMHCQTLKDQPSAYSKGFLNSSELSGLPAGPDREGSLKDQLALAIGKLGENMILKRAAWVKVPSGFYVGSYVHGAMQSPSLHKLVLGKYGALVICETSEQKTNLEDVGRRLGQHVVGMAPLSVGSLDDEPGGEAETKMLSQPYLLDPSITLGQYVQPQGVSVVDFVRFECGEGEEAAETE
UniProt Q9NX07: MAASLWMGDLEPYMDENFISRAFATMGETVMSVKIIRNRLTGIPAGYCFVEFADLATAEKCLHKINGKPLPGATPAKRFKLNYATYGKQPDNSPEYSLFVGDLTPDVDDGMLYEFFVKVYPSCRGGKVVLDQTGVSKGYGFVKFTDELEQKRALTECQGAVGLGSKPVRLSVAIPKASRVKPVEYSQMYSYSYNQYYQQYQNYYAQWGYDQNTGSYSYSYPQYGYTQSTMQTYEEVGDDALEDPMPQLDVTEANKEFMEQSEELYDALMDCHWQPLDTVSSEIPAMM
UniProt Q9C037: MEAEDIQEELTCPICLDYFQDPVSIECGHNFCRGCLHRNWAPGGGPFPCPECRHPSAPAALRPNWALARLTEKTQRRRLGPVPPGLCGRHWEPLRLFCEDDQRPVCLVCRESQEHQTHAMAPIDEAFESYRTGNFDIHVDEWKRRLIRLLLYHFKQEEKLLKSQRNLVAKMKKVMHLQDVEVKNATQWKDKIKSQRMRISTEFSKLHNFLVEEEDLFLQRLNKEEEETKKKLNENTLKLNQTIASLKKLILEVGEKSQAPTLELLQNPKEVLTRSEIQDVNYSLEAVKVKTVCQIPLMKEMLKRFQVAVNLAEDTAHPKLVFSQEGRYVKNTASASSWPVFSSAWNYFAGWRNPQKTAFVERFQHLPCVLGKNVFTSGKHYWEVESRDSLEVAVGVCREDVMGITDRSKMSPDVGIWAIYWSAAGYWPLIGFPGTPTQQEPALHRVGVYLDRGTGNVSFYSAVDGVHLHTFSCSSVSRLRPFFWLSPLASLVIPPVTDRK
UniProt Q9UJA5: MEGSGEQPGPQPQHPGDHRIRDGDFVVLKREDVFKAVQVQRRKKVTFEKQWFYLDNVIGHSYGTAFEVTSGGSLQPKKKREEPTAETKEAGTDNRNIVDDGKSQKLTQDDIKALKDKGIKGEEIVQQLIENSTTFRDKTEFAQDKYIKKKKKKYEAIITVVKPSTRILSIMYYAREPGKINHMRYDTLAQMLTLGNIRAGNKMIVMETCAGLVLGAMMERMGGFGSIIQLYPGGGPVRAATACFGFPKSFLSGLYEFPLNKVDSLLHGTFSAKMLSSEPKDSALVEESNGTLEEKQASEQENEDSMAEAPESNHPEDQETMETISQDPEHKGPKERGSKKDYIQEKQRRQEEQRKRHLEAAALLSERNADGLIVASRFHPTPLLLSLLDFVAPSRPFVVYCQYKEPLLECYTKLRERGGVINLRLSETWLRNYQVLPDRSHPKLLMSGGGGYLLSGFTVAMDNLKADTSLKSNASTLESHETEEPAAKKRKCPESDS
UniProt Q7Z2T5: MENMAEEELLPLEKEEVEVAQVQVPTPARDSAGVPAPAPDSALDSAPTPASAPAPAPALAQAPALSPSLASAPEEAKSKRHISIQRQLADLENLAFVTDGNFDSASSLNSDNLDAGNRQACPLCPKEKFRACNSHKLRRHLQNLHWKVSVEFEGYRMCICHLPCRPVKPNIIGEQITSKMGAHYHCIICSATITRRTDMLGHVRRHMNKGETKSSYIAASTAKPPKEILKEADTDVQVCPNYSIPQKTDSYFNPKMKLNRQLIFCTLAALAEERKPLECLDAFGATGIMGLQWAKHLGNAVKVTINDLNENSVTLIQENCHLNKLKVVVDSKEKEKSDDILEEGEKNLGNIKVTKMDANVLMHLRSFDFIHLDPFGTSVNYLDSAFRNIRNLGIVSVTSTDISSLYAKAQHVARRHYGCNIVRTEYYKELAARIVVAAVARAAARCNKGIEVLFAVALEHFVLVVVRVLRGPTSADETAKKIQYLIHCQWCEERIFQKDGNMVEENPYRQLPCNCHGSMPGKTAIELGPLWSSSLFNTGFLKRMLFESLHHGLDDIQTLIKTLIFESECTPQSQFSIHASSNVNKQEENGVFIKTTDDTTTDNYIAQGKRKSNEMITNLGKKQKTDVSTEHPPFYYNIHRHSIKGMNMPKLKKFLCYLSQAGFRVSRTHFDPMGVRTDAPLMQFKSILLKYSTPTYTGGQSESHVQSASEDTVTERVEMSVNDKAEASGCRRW
UniProt Q96F44: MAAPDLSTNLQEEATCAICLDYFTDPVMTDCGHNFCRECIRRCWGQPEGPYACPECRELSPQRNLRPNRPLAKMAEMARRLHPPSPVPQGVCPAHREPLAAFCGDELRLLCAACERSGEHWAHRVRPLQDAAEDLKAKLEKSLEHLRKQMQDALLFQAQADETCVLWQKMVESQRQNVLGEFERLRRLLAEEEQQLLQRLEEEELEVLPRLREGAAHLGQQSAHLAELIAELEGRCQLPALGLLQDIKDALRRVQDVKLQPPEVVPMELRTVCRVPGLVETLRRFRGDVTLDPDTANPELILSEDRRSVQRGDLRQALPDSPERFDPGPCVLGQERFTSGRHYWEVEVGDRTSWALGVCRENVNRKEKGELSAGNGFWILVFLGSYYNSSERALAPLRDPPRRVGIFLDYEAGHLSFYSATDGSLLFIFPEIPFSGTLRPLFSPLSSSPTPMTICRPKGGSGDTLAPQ

The list shows a part of the results.

Compound in this experiment: C1=CC(=CC=C1C2=NC3=C(N2)C=C(C=C3)C(=O)N)OC4=CC=C(C=C4)Cl
Briefly: log2 fold change, soluble protein after heating vs DMSO (PISA); higher = thermal stabilisation; K562 lysate, 10 uM; active = over 0.2 and 3.5 SD of the protein, either way, in both replicates (recomputed). The method, boiled down: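 To prepare the extract, K562 pellets were dounce-homogenised in PBS pH 7.4 with 1 mM MgCl2, giving crude material at 1 mg/mL protein. This was treated with 10 μM compound for 30 min, then heated in aliquots for 3 min over 48°C-58°C before pooling and addition of NP-40 to 0.5% at 4°C. Centrifugation at 21,000xg for 90 min left soluble protein in the supernatant, which TMTpro 16plex LC-MS/MS quantified with equalised channel sums. Results are log-two fold changes in thermal stability compared with solvent controls, from duplicates.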
As for TSSC4 (UniProt Q9Y5U2), the log2 fold change was inactive: 0.007.

As for TRIM44 (UniProt Q96DX7), the log2 fold change is inactive: -0.016. For TRMT12 (UniProt Q53H54) the value was inactive: 0.018; for TTC9C (UniProt Q8N5M4), inactive: 0.009. For TRMT11 (UniProt Q7Z4G4) the value was inactive: 0.005; for TRAPPC6B (UniProt Q86SZ2), inactive: 0.016; for TRIM38 (UniProt O00635), inactive: 0.004. Then TRMT10A (UniProt Q8TBZ6), with inactive: -0.007; and TSN (UniProt Q15631), with inactive: 0.013. Take TRAPPC9 isoform 2 (UniProt Q96Q05): the log2 fold change was inactive: -0.01. Then TTLL12 (UniProt V9GY16), with inactive: -0.193. Then TTC7B isoform 2 (UniProt Q86TV6), with inactive: -0.105; and TSPO (UniProt P30536), with inactive: -0.034. Then TRAPPC6A isoform 2 (UniProt O75865), with inactive: 0.002; and TTC27 (UniProt Q6P3X3), with inactive: -0.043; and TSC22D1 (UniProt Q15714), with inactive: 0.048.

As for TSFM (UniProt P43897), the log2 fold change was inactive: -0.035.

Take TRNAU1AP (UniProt Q9NX07): the log2 fold change is inactive: -0.037. For TRIM4 (UniProt Q9C037) the value was inactive: -0.031; for TRMT6 (UniProt Q9UJA5), inactive: -0.007; for TRMT1L (UniProt Q7Z2T5), inactive: 0.036. Then TRIM11 (UniProt Q96F44), with inactive: -0.008; and TRPC4AP (UniProt Q8TEL6), with inactive: -0.027.
